Measurements from paper doi:10.1101/2020.07.20.213066.
No constants are given. Whether binding was seen depends on the method and setting. For part of these data: Binding seen in cells or lysates may run through a third protein. Some entries that bind do so weakly or less than the wild type. Sequences can lack the tags named with a protein.

Chains of the proteins cited; added tags and fusions are not shown. Residues count along the entry.
UniProt Q9Y3S1, residues 2153-2178: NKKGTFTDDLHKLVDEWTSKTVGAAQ
UniProt Q9BYP7, residues 1641-1666: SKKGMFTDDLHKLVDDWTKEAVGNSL

Columns and labels:
[1] = biological target: T1, purified 3xFLAG-tagged EMC2 (human) (UniProt Q15006); experiment: co-IP
T1 sequence: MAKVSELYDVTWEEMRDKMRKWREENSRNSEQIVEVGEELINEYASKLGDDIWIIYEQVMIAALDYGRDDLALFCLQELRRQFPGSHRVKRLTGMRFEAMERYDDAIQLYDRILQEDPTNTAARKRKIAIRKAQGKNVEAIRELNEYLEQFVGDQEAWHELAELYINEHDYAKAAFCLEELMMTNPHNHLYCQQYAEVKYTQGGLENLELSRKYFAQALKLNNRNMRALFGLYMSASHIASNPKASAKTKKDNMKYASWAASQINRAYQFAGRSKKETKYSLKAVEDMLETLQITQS

[2] = biological target: T2, full-length S. cerevisiae EMC5-3xFLAG, in vitro translated (S. cerevisiae) (UniProt P40540); experiment: co-IP
T2 sequence: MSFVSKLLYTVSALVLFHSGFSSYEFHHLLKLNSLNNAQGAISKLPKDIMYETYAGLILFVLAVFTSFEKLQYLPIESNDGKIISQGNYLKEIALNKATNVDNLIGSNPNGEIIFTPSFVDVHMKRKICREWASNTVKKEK

## His14-bdSUMO-tagged WNK2 helix (residues 2153-2178) (from UniProt Q9Y3S1 2153-2178) (domain or fragment)
[1]
  binding: binds

## His14-bdSUMO-tagged WNK3 helix (residues 1641-1666) (from UniProt Q9BYP7 1641-1666) (domain or fragment)
[1]
  binding: binds

B1: 3xHA-tagged S. cerevisiae EMC2, in vitro translated (protein, UniProt P47133 1-292)
chain: MLKDLVREKLLTIMNTKAYTQFNPEQLLQLENEMKIYMKSGDSALTEGNYFFLMEMLFYVLVYRNQDVDAQVVYNTLRDRLGENSYKMVIMKATLLQINGNDKGAIEYLENLLNDDLEYETDFVTYVSIAKKLIAIKTTSKNLSQESVLKEVVALTDKFPLDAELWWYASEIYFEMGQFEKACYCLEQVLCITPFNYACFGRLSETLYYEALRSKKQTKTELLEKALKNALRSVELSELYLKGWALVNIISRELGRNKQNDLIKLSASKLKEISAKSNNKDKITAELILNKI
[2]
  binding: binds
